Results reported in paper PMC12343803.
These are yes or no findings as the source states them, for the method shown. In cells and extracts the contact can be indirect. These calls come from enrichment with a bait or labelling near it, and not all partners need be listed.

Amino acid sequences for entries named in this document (tags omitted).
UniProt P10415: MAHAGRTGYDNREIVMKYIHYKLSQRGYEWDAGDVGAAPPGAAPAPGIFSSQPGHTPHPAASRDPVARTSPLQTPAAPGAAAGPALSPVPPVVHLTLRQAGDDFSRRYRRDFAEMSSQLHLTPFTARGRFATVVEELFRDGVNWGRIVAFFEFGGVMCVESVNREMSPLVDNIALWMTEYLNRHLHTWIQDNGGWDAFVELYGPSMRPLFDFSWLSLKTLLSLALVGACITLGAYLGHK
UniProt P19474: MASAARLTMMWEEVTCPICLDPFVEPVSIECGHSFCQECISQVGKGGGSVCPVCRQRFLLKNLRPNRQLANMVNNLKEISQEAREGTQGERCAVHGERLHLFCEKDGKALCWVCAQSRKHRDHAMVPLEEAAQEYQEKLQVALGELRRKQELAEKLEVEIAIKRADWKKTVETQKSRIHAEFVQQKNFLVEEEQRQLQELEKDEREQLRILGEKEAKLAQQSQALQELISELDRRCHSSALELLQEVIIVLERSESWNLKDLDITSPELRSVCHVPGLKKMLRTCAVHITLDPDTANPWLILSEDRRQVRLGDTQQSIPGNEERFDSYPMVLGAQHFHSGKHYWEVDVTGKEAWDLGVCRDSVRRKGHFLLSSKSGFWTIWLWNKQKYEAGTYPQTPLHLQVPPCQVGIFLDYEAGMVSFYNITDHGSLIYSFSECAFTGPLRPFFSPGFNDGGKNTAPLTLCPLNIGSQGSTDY

Molecular target: BCL2 (UniProt P10415)
Experiment: affinity purification with mass spectrometry; co-immunoprecipitation mass spectrometry (Co-IP-MS) of BCL2; cells and antibody not told

binding: binds
Substance: TRIM21 (from UniProt P19474 1-475)
